Experimental data as given in patent US10967076B2, “Use of non-labeled sugars and detection by MRI for assessing tissue perfusion and metabolism” (The Johns Hopkins University, priority 2010, dated 2021).

Assay: glucoCEST (CEST MRI) of a D-glucose phantom in PBS buffer
Assay type: physicochemical
Settings: PBS buffer pH=7.3, T=37° C., 9.4 Tesla, B1 3.6 μT, saturation time 3.5 seconds

For `O=C[C@H](O)[C@@H](O)[C@H](O)[C@H](O)CO` [D-glucose], the detection sensitivity was “about 0.5 % of water signal per mM”.
